# This is one part of the list. These are further read-outs of the screen, such as a control signal, another cell line or another target. No call is given for them. The list favours compounds with an active or inconclusive main result. The note in brackets gives the kind of curve behind each potency; many fits are weak.
# Assay: qHTS Assay for Lipid Storage Modulators in Drosophila S3 Cells;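 as to cell number change: cells counted by Cell Tracker Red CMTPX staining in the red channel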
# Conditions: BODIPY lipid droplet fluorescence, 18-24 h; for cell number change: measured here: cell count max response, cells fed with added oleic acid
# Outline: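 Drosophila S3 cells got compounds at several concentrations plus oleic acid (400 uM solution). Laser-scanning cytometry with 488 nm excitation read lipid droplets at 500-530 nm and cells at 575-640 nm. Percent activity was relative to 20 uM Triacsin C.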
# [1] = measured here: lipid fluorescence (Fed channel) AC50, cells fed with added oleic acid
# [2] = measured here: cell number channel AC50, cells fed with added oleic acid
SMILES,cell number change [%],AC50 [1],AC50 [2]
COc1ccc(N2CCN(C(=O)CNC(=O)c3nn(-c4ccc(OC)cc4)c(=O)c4ccccc34)CC2)cc1,-2.7,"29.1 µM [falling, single point]",–
O=C(CN(Cc1ccc(F)cc1)C(=O)CNS(=O)(=O)c1ccccc1)NCc1ccco1,-4.17,"0.651 µM [falling, single point]",–
CCC(C)(CCNC(=O)Cc1ccccc1)c1ccccc1OC (stereo not given),-18.6,"0.00461 µM [falling, full curve, poor fit]",–
CCOc1ccc2nc(N(CCCN(C)C)C(=O)c3ccc(C(=O)c4ccccc4)cc3)sc2c1,22.8,"9.2 µM [rising, partial curve, poor fit]",–
CC(C)(C)n1cnc2cc(NC(=O)c3ccc(Cl)cc3)ccc21,-21.5,"4.11 µM [falling, full curve]",–
COc1cccc([C@H](O)Cn2cc(-c3ccc(CON=C(C)C)cc3)nn2)c1,3.78,"1.03 µM [rising, full curve, poor fit]",–
O=S(=O)(c1ccc(Br)cc1)N1CCN(c2cc(-c3ccccc3)nc3ncnn23)CC1,18,–,–
O=C(c1ccccc1)c1cccc(C(=O)c2ccccc2)c1,-0.35,–,–
O=C(CN1C(=O)NC2(CCCC2)C1=O)Nc1ccc(F)c(Cl)c1,-10.5,"35.5 µM [falling, single point]",–
Cc1cccc(N(C)C(=O)CN2C(=O)COc3ccc(S(=O)(=O)N4CCCCCC4)cc32)c1,-37.8,"0.461 µM [falling, partial curve, poor fit]","16.4 µM [falling, partial curve]"
CC(C)Cn1nc(C(=O)NCc2ccccc2CN2CCCC2)c2ccccc2c1=O,14.5,"1.3 µM [rising, full curve]","0.092 µM [rising, full curve, poor fit]"
O=C(COC(=O)c1cccs1)NCc1ccco1,1.12,–,–
CC(NC(=O)Cc1ccc(Br)cc1)c1ccccc1 (stereo not given),3.3,"29.1 µM [rising, single point]",–
COc1ccc(S(=O)(=O)N2CCN(C(=O)c3ccco3)CC2)cc1OC,–,"0.116 µM [falling, full curve, poor fit]","0.116 µM [falling, full curve, poor fit]"
CCN(Cc1ccccc1)C(=O)C1CCN(c2ncnc3c2nc2n3CCCCC2)CC1,-14.9,"23.1 µM [falling, single point]",–
Cc1ccccc1CCNC(=O)Cn1ccc2cc(S(=O)(=O)N3CCCC3)ccc21,-3.36,"0.82 µM [rising, single point]",–
CC1CCN(c2nnc(NC(=O)Cn3c(=O)oc4ccccc43)s2)CC1,20.5,"0.231 µM [falling, full curve, poor fit]",–
Fc1ccc(C2CC(c3cccs3)=NN2c2ccccc2)cc1 (stereo not given),-44.9,"0.116 µM [falling, full curve, poor fit]","9.2 µM [falling, partial curve, poor fit]"
Cc1ccc(CN(c2ccc(C(=O)Nc3ccc4c(c3)OCO4)cc2)S(C)(=O)=O)cc1,84.4,"1.3 µM [rising, full curve]","1.03 µM [rising, full curve]"

SMILES,cell number change [%],AC50 [1],AC50 [2]
CCN(CC(=O)NCc1cccs1)C(=O)c1ccccc1Cl,-8.73,–,"6.51 µM [falling, partial curve]"
CCOc1ccccc1OCC(=O)Nc1cc(S(=O)(=O)N2CCCCC2)ccc1N1CCN(CC)CC1,–,"3.66 µM [rising, partial curve]",–
COc1ccc(COC(=O)Oc2ccc(CNC(C)=O)cc2OC)c([N+](=O)[O-])c1,17.2,"5.8 µM [falling, single point]","6.51 µM [falling, single point]"
COc1ccc(/C=N/NC(=O)c2cc(C)oc2C)cc1OCc1ccccc1,–,"0.103 µM [falling, full curve, poor fit]",–
COc1cccc(-n2cnnn2)c1,1.59,–,–
COc1ccccc1NC(=O)C(=O)N(c1cccnc1)C(C(=O)NC(C)(C)C)c1ccccc1 (stereo not given),-28.3,–,–
Cc1ccc(CNC(=O)c2ccc(S(=O)(=O)N(C)C)cc2)n1C,2.86,"6.51 µM [rising, single point]",–
Cc1ccc([C@@H]2CC=C(C(=O)O)[C@H](c3ccc(Cl)cc3)N2S(=O)(=O)c2ccc(C)cc2)cc1,32.9,"14.6 µM [rising, partial curve, poor fit]","29.1 µM [rising, single point]"
CCCN(S(=O)(=O)c1ccccc1F)S(=O)(=O)c1ccccc1Br,-27.8,–,–
CN(C)c1oc(-c2ccccc2Cl)nc1C#N,21.1,"0.231 µM [rising, full curve, poor fit]","0.231 µM [rising, full curve, poor fit]"
COc1ccc(NC(=O)c2ccc3ccccc3c2)cc1NS(=O)(=O)c1ccc(F)cc1,15.8,–,–
O=C(c1ccco1)N1CCN(Cc2nnnn2C2CCCCC2)CC1,9.57,"0.58 µM [falling, single point]",–
COC(=O)C(Cc1ccccc1)NC(=O)c1ccc(NS(=O)(=O)c2ccc3[nH]c(=O)[nH]c3c2)cc1 (stereo not given),-3.5,–,–
Cc1ccc(S(=O)(=O)N2CCC(C(N)=O)CC2)cc1[N+](=O)[O-],8.55,"6.51 µM [rising, single point]",–
NC(=O)CC(NC(=O)Cc1ccc(Br)cc1)c1ccc(NC2CCN(Cc3ccccc3)CC2)c([N+](=O)[O-])c1 (stereo not given),-10.8,"3.26 µM [falling, single point]",–
CC(C)CN(C(=O)C1=NN(c2ccccc2)C(=O)CC1)c1c(N)n(Cc2ccccc2)c(=O)[nH]c1=O,-20.4,–,–
CC(C)Cn1c(N)c(C(=O)COC(=O)c2ccccc2F)c(=O)n(C)c1=O,12.1,–,–
Cc1cc(NC(=O)CN2C(=O)NC(CCc3ccccc3)C2=O)no1 (stereo not given),34.4,"3.66 µM [falling, single point]","25.9 µM [rising, single point]"

# 2 entries drawn at random from those above:
SMILES,cell number change [%],AC50 [1],AC50 [2]
CC(C)CN(C(=O)C1=NN(c2ccccc2)C(=O)CC1)c1c(N)n(Cc2ccccc2)c(=O)[nH]c1=O,-20.4,–,–
COc1cccc(-n2cnnn2)c1,1.59,–,–

# Source: PubChem BioAssay AID2685 (National Center for Advancing Translational Sciences (NCATS), 2010)
